Results are given in words; binding and its absence hold for the method and conditions named. Binding can be weak; no strength is given. Where a sequence is shown, tags or fusion partners need not be part of it.
Target: GST-SCRIB containing all 4 PDZ domains (WT)
Experiment: pull-down; SNAP GST-pulldown: 1 μM GST-tagged SCRIB proteins on glutathione agarose beads with serial dilutions of BG-782-labeled SNAP-α1D-CT, 1 h at 4 °C; washes 20 mM Tris-HCl pH 8.0, 200 mM NaCl, 0.05% NP-40; PAGE NIR; both purified

Protein sequences, listed by entry. Tags and fused reporters are not part of them. Lines headed by an entry give the natural chain unless they say otherwise; changes in a name come on top.
UniProt P25100: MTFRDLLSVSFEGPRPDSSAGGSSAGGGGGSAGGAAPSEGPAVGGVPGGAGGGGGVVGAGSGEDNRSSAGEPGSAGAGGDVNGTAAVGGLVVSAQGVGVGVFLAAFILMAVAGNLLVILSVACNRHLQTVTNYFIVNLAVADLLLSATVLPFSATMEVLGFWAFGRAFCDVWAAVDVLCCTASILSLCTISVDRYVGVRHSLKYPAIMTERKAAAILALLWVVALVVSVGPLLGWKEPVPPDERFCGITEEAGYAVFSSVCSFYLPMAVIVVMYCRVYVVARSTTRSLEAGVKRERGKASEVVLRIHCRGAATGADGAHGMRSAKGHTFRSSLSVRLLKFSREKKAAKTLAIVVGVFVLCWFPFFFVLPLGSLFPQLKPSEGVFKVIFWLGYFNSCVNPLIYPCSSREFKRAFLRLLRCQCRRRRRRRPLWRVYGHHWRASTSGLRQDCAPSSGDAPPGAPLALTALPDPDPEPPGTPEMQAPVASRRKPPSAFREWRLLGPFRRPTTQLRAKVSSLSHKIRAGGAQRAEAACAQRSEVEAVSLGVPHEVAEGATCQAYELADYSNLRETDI

QAYELADYSNLRETDI (peptide, UniProt P25100 557-572, SNAP tag labeled with the SNAP substrate BG-782) was tested, and the binding was “binds”.
